These are yes or no findings as the source states them, for the method shown. Some entries that bind do so weakly or less than the wild type.

From patent CN111363043A come the findings set out here.

The assay concerns the target T1, CD20-BSA (human).
T1 sequence (peptide, conjugated to BSA (preparation and coupling chemistry not described)): EPPQDQESSPIENDSSP
In words: ELISA screening of hybridoma supernatants on CD20-BSA (three rounds). A general note: An ELISA detects its analyte on a solid surface through an enzyme-linked reagent.

B1: 抗CD20蛋白单克隆抗体 (secreted by mouse hybridoma cell line AbM58020-32A8-PU, CGMCC NO.17491) (antibody, V domains shown)
VH: EVKLQESGPSLVKPGASVKISCKASGNTFTDYYMNWVRQSHGQSLEWIGRFIPSTAKTNYNHKFKDKATLTLDTSLSTAYMQLNSLTSEDSAVYYCRSDFAFWGQGTLVTVSA
VL: DILMTQSPLSLSITIGQPASISCKSSQSLLYSNGKTYLNWLLQRPGQSPKRLIYIVSKLDSGVPDRFTGSGSGTDFTLKISRVEAEDLGVYYCGQGTHYPPTFGGGTKLEIK
With B1, the binding result is given as “binds”.
